Measured values taken from article PMC7967072.
Results are given in words; binding and its absence hold for the method and conditions named. Binding seen in cells or lysates may run through a third protein. Some entries that bind do so weakly or less than the wild type.

Sequences of proteins named here, by UniProt entry; tags and fusion partners are left off. A change or cut given only in a name is not applied to a line headed by its entry.
UniProt Q9Y2J8: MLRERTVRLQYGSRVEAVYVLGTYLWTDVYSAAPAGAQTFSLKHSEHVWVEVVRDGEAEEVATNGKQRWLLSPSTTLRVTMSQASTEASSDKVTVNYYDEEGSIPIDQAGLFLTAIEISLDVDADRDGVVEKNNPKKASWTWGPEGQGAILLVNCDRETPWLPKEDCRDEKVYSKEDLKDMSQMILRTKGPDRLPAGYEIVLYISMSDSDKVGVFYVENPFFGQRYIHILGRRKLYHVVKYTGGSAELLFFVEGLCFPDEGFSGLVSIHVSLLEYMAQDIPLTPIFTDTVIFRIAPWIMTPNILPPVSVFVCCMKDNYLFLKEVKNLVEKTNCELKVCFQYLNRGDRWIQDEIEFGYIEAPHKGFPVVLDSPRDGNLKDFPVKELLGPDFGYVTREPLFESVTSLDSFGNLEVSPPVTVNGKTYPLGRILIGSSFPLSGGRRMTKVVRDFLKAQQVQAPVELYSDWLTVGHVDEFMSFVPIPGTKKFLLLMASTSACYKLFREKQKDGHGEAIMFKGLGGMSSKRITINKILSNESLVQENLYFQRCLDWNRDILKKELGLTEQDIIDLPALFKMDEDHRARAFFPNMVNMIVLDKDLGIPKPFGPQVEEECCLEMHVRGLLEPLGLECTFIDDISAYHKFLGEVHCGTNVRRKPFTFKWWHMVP

What was measured:
[1] = target: His-tagged MEK1 (UniProt Q02750); test: co-IP; HEK293 cells co-transfected with Flag-PADI2 and His-MEK1; whole cell lysates precipitated with anti-Flag M2 affinity gel, and reciprocally with anti-His antibody; western blot with anti-His and anti-Flag
[2] = target: Flag-tagged peptidylarginine deiminase II (PADI2) (human) (UniProt Q9Y2J8); test: as above

binding [1]	binding [2]	Substance
binds		Flag-tagged peptidylarginine deiminase II (PADI2) (from UniProt Q9Y2J8-1 1-665) (enzyme)
	binds	His-tagged MEK1 (from UniProt Q02750 1-393) (enzyme)
